Source: PMC4604347, “Local regulation of the Srs2 helicase by the SUMO-like domain protein Esc2 promotes recombination at sites of stalled replication”
Results are given in words; binding and its absence hold for the method and conditions named. For some assays here: In cells and extracts the contact can be indirect. Some binding calls cover weakened binding; strength is not graded here. For some assays here: Sequences can lack the tags named with a protein.

Sequences of proteins named here, by UniProt entry; tags and fusion partners are left off. A change or cut given only in a name is not applied to a line headed by its entry.
UniProt P12954: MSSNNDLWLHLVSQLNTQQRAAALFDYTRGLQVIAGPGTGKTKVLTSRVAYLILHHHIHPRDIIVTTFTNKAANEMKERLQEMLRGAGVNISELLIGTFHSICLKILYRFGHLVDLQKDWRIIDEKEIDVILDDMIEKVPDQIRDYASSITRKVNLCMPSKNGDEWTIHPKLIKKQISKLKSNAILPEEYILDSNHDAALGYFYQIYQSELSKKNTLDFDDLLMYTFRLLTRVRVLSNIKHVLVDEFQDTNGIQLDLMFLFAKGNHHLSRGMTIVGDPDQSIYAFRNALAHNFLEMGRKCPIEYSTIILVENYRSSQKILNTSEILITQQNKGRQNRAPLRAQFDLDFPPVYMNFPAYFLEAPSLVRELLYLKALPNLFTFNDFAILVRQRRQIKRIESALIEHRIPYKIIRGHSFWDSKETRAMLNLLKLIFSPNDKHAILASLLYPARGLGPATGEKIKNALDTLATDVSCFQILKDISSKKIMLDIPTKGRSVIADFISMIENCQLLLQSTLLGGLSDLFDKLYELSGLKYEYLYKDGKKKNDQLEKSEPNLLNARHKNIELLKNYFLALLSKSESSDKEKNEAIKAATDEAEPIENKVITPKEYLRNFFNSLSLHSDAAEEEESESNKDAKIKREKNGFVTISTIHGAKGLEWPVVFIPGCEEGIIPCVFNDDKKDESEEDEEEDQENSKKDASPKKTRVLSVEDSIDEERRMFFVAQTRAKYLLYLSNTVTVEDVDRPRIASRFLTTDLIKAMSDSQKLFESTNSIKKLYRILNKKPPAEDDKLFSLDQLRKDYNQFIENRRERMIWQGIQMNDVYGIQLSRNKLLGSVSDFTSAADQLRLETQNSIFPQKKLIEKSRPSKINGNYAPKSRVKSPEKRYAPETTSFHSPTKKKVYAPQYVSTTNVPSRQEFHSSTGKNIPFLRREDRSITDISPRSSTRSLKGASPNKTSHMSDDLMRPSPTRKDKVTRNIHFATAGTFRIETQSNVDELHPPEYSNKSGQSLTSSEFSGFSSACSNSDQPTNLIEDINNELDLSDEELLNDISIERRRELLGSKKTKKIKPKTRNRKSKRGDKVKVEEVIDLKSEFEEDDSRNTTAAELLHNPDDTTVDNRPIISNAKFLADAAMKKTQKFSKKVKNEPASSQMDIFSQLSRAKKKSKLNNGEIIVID
UniProt P15873: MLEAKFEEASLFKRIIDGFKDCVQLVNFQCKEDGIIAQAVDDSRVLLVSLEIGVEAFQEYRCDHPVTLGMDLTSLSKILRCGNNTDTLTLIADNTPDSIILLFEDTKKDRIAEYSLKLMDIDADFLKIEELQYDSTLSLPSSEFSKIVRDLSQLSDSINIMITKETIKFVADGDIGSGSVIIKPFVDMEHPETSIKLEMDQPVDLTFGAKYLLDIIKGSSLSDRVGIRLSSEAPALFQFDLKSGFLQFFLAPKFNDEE

Experiments:
GST-Esc2 (S. cerevisiae) [1] = molecular target: T1, GST-Esc2 (S. cerevisiae) (UniProt Q06340); assay: pull-down; in vitro pull-down: 3 μg His-tagged Srs2 mixed with 3 μg GST-Esc2 in the presence of glutathione beads; supernatant and SDS eluate on SDS-PAGE, Coomassie staining; both purified
T1 sequence: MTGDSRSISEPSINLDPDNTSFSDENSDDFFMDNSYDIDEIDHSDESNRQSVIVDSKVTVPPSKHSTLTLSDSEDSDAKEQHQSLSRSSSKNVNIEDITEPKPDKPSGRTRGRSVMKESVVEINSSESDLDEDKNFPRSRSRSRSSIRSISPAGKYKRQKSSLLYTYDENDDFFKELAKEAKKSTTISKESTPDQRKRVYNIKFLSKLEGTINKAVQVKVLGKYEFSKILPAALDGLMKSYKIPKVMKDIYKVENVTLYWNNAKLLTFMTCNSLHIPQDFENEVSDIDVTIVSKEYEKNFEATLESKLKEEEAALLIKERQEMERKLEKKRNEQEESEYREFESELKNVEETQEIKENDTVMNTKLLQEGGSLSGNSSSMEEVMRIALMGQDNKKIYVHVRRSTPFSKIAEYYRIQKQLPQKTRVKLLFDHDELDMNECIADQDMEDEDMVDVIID

[2] = molecular target: T2, Esc2 (two-hybrid fusion, full-length) (S. cerevisiae) (UniProt Q06340); assay: two-hybrid; yeast two-hybrid, as in Sollier et al. 2009
T2 sequence: T1 sequence

GST-Esc2 (S. cerevisiae) [3] = molecular target: T1, GST-Esc2 (S. cerevisiae); assay: pull-down; 'in vivo pull-down': purified recombinant GST-Esc2 (wild type or mutants) with total yeast cell lysate, with or without ethidium bromide; complexes on the beads analysed by protein blotting; only the target purified
[4] = molecular target: His-tagged Srs2 (S. cerevisiae) (UniProt P12954); assay: pull-down; in vitro pull-down of Esc2^Δ154–198 with Srs2 (Supplemental Fig. S5A); beads not told; both purified
GST-Esc2 (S. cerevisiae) [5] = molecular target: T1, GST-Esc2 (S. cerevisiae); assay: pull-down; 'in vivo pull-down': purified recombinant GST-Esc2 (wild type or mutants) with total yeast cell lysate, with or without ethidium bromide; complexes on the beads analysed by protein blotting; only the target purified; remark: listed apart in the source
[6] = molecular target: His-tagged Srs2 (S. cerevisiae) (UniProt P12954); assay: pull-down; in vitro pull-down: 3 μg His-tagged Srs2 mixed with 3 μg Esc2 in the presence of Ni-NTA beads; supernatant and SDS eluate on SDS-PAGE, Coomassie staining; both purified

## His-tagged Srs2 (from UniProt P12954 1-1174)
GST-Esc2 (S. cerevisiae) [1]
  binding: binds

## PCNA (two-hybrid fusion) (from UniProt P15873 1-258)
[2]
  binding: no binding

## Srs2 (two-hybrid fusion) (from UniProt P12954 1-1174)
[2]
  binding: binds

## Srs2 fragment 909–1174 (two-hybrid fusion) (from UniProt P12954 909-1174) (domain or fragment)
[2]
  binding: binds

## Srs2 fragment 1036–1174 (two-hybrid fusion) (from UniProt P12954 1036-1174) (domain or fragment)
[2]
  binding: binds

## endogenous PCNA (from UniProt P15873 1-258)
GST-Esc2 (S. cerevisiae) [3]
  binding: no binding

## endogenous Srs2 (from UniProt P12954 1-1174)
GST-Esc2 (S. cerevisiae) [3]
  binding: binds

B1: Esc2^Δ154–198 (protein, UniProt Q06340)
chain: MTGDSRSISEPSINLDPDNTSFSDENSDDFFMDNSYDIDEIDHSDESNRQSVIVDSKVTVPPSKHSTLTLSDSEDSDAKEQHQSLSRSSSKNVNIEDITEPKPDKPSGRTRGRSVMKESVVEINSSESDLDEDKNFPRSRSRSRSSIRSISPAVYNIKFLSKLEGTINKAVQVKVLGKYEFSKILPAALDGLMKSYKIPKVMKDIYKVENVTLYWNNAKLLTFMTCNSLHIPQDFENEVSDIDVTIVSKEYEKNFEATLESKLKEEEAALLIKERQEMERKLEKKRNEQEESEYREFESELKNVEETQEIKENDTVMNTKLLQEGGSLSGNSSSMEEVMRIALMGQDNKKIYVHVRRSTPFSKIAEYYRIQKQLPQKTRVKLLFDHDELDMNECIADQDMEDEDMVDVIID
[4]
  binding: binds

B2: Slx5 (protein, UniProt P32828 1-619)
chain: MHSDTNGRTKSNNSPSDNNPNETVILIDSDKEEDASIREANLPVRLYPDRRVGRRRDALNRFVRSDSRSRNSQRTHITASSERPDFQANNDDITIIREVGRFFGDDGPIDPSAHYVDLDQEPGSETLETPRTIQVDNTNGYLNDNGNNNESDDGLTIVEERTTRPRVTLNLPGGERLEVTATTTDIPIRRSFEFQEDLGASRRQLLRRSATRARNLFVDRSDENDEDWTDDTHNLPEAIQRARRESRMRMSRRIAERQRRVQQQRVSSDENISTSIRLQSIRERIQSYTPDIRSAFHRAESLHEFRSILQNVAPITLQECEEELMALFTEFRNQLLQNWAIDRVRNTQEEALRLHREALERQERTAGRVFHRGTLRESITNYLNFNGEDGFLSRLWSGPALSDADEERHTQNIIDMIQEREERERDVVMKNLMNKTRAQQEEFEARAASLPEGYSASFDTTPKMKLDITKNGKEETIIVTDDDLAKTLEDIPVCCLCGAELGVGIPDDFTGISQKDRGVSFEGLVSKYKFHCPYQTLARPSMLDRDLSKRTFIASCGHAFCGRCFARIDNAKKKSKMPKKKLAQLKGSAHPDNYGPKLCPADSCKKLIRSRGRLKEVYF
GST-Esc2 (S. cerevisiae) [5]
  binding: binds

B3: Elg1-Flag (protein, UniProt Q12050 1-791)
chain: MKRHVSLSDILTGNKRKVRRQDALQITIDDENDTESGTFDARTAKHDDSSVIFLNHSVVKPIEAVSTNHKSAKEFLMTKRTKEKCDDDDDDLIVISDKSPKSETNCSKIALSQEHEDDISIISTSRIKSSLLNERASKIKNFLKHETTDTFKRLNSISKLNEIEPPLPLHQSIFPVGDKELSDRSVDIPLPFRTIPPLNHNFLPSDYESLKDKNSASCIPVRYQAPVLLGTNIKRNTTLTWPQLFKPVTLKQVLIEPKLKLRIKNWIETSFHTLEKPTLRNRLLNRINPNKQQGSGDELANFIVPDLEEDENLRPDFYRNGEANSSLSEFVPLMILHGNSIGKKTLIQTIMREIAGDDNSYQIYEVNSNMNRSKKDLLDILLDFTTTHYVKDSSKRKSDYGLVLFNDVDVLFKEHDRGYWAMISKLCEFSRRPLVLTCKDLSLVPSELIALASEQNSLFHTKKISTSTVYAFLTKYLKSLEIEVCDDWLRDVVKQNNADIRKCLMHLQFWCVDTEADLISSKNRLPVLTSTLGSSVKDISQLTDLLSINDVIGQATLNRSMVRQEIDSTTMTPEKVNTFQDQNLDDEMKLKFDYVIDYKLHLNDPNRQPLLPFELNIYQHIQEQLEARYSYVREANHRLDNEYLVNRFKKMTESTLNFLASRIPKYDHLQSARRTRNSKKISDILNQFKGIYNDETLNENAEIDLLSATTQQIKAEINPFVFEIAKSDANVKNENKQIFELHSENVSERRYKDLVYQLSQEGVLKNVWFNADPSIVVRKWEHLHSGFSKNK
GST-Esc2 (S. cerevisiae) [5]
  binding: binds

B4: Esc2 (purified recombinant Esc2 protein without the GST tag) (protein, UniProt Q06340 1-456)
chain: T1 sequence
[6]
  binding: binds
